PubChem BioAssay (Tox21)
The source calls these results inconclusive, neither active nor inactive. Unless noted, calls follow the shape of the full dose curve.

Assay: Nuclear factor erythroid 2-related factor 2/antioxidant responsive element (Nrf2/ARE) small molecule agonists: qHTS cell viability counter screen in human keratinocytes (AID 1919968; active = well fitted cell-killing curve with a large enough effect in the repeat runs; inconclusive = weak or mixed curves, or effect the other way; also: nearly all actives have a fitted effect of over 55% in size)
Conditions: KeratinoSens HaCaT ARE cells viability, CellTiter-Fluor, 24 h
Excerpt: U.S. Tox21 Program National Center for Advancing Translational Sciences [NCATS] Division of Preclinical Innovation [DPI] U.S. Environmental Protection Agency [EPA] National Institutes of Environmental Health Sciences [NIEHS] National Toxicology Program [NTP] U.S. Food and Drug Administration [FDA] Tox21 Assay Overview: Oxidative stress has been implicated in the pathogenesis of a variety of diseases ranging from cancer to neurodegeneration. The antioxidant response element (ARE) signaling pathway plays an important role in the amelioration of oxidative stress. The KeratinoSens (Givaudan, Switzerland) is an in vitro test method which quantifies luciferase induction as a measure of activation of Keap1-Nrf2-antioxidationt/electrophile response element (ARE) dependant pathway in HaCaT human keratinocytes stably transfected with a selectable plasmid. The KeratinoSens assay is a cell-based assay with a reporter cell line to detect potential skin sensitizers by their ability to induce the Nrf2/ARE-response. The activation of the report gene under culture conditions can be detected by ONE-Glo Luciferase Assay System (Promega, Madison, WI). This cell line has been used to screen the Tox21 10K compound library to identify agonists that induce oxidative stress. The cytotoxicity of the Tox21 compound library against the KS-ARE cell line was tested in parallel by measuring the cell viability using CellTiter- Fluor assay system (Promega, Madison, WI) in the same wells.
Tox21 Assay Protocol Summary: HaCaT derived cell line KeratinoSens were dispensed at 1,500 cells/5uL/well in 1536-well white wall/solid bottom plates using a Multidrop Combi (ThermoFisher Scientific, Waltham, MA) dispenser. […] The plates were incubated at 37 C/5% CO2 for 23 h, followed by addition of 1uL/well of CellTiter-Fluor reagent into the assay plates using a Flying Reagent Dispenser (Aurora Discovery, San Diego, CA) for cell viability readout that measures cytotoxicity. After 1 h incubation at 37 C/5% CO2 the fluorescence intensity was measured using a ViewLux (PerkinElmer, Shelton, CT) plate reader.
Potency is read from the fitted curve at half-maximal effect.

Structure (SMILES)	Potency
Nc1cc([N+](=O)[O-])cc([N+](=O)[O-])c1O	inconclusive: 31.3 µM
CN(CCCl)CCCl	inconclusive: 33.5 µM
O=[N+]([O-])c1ccc([N+](=O)[O-])cc1	inconclusive: 61.1 µM

Assay: p53 small molecule agonists, cell-based qHTS assay with rat liver microsomes: qHTS cell viability counter screen (AID 1963580); also: nearly all actives have a fitted effect of over 45% in size
Conditions: p53RE-bla HCT-116 + rat microsomes, ATP viability, 16 h
Excerpt: (§1) National Center for Advancing Translational Sciences [NCATS]
(§2) Division of Preclinical Innovation [DPI]
(§3) U.S. Environmental Protection Agency [EPA]
(§4) National Institutes of Environmental Health Sciences [NIEHS]
(§5) National Toxicology Program [NTP]
(§6) U.S. Food and Drug Administration [FDA]
p53, a tumor suppressor protein, is activated following cellular insult, including DNA damage and other cellular stresses. The activation of p53 regulates cell fate by inducing DNA repair, cell cycle arrest, apoptosis, or cellular senescence. The activation of p53, therefore, is a good indicator of DNA damage and other cellular stresses. The CellSensor p53RE-bla HCT-116 cell line contains a stably integrated beta-lactamase reporter gene under control of the p53 response elements. The activation of the reporter gene under culture conditions can be detected by fluorescence intensity. This cell line was used to screen the Tox21 10K compound library in the condition of presence of rat liver microsomes and to identify agonists that activate the p53 signaling pathway after in vitro metabolic activation (Ooka et al., Archive of Toxicology 96:1975-1987, 2022). The cytotoxicity of the Tox21 compound library against the p53 RE-bla HCT-116 cell line was tested in parallel by measuring the intra cellular ATP content in the same wells.
(§7) Tox21 Assay Protocol Summary:
The p53RE-bla cells were dispensed at 4,000cells/3ul/well in 1536-well black-clear bottom plates. After the assay plates were incubated at 37 C, 5% CO2 incubator for 5 hours, 23 nL of compounds dissolved in DMSO, positive controls or DMSO only was transferred to the assay plate. […] Fluorescence intensity at 460 and 530 nm emission and 405 nm excitation were measured by an Envision plate reader. For cell viability readout that measures cytotoxicity, 4 ul/well of CellTiter-Glo reagent was added into the assay plates using a Flying Reagent Dispenser. After 30 min incubation at room temperature, the luminescence intensity in the plates was measured using a ViewLux plate reader.

Structure (SMILES)	Potency
O=C1C2CC=CCC2C(=O)N1SC(Cl)(Cl)C(Cl)Cl (centres undefined)	inconclusive: 9.19 µM
Cc1ccc([N+](=O)[O-])c([N+](=O)[O-])c1	inconclusive: 46.7 µM
CN(CCCl)CCCl	inconclusive: 51.2 µM

Assay: p53 small molecule agonists, cell-based qHTS assay (AID 1963582; active = well fitted activation curve with a large enough effect in the signal ratio in the repeat runs, not every such curve was filed as active; inconclusive = weak or mixed curves; the % refers to the signal ratio)
Conditions: HCT-116 p53RE-bla reporter, beta-lactamase FRET ratio, 16 h
Excerpt: as §1, §2, §3, §4, §5, §6
p53, a tumor suppressor protein, is activated following cellular insult, including DNA damage and other cellular stresses. The activation of p53 regulates cell fate by inducing DNA repair, cell cycle arrest, apoptosis, or cellular senescence. The activation of p53, therefore, is a good indicator of DNA damage and other cellular stresses. […] The activation of the reporter gene under culture conditions can be detected by fluorescence intensity. This cell line was used to screen the Tox21 10K compound library in a 1536-well plate format and to identify agonists that activate the p53 signaling pathway.
as §7
The p53RE-bla cells were dispensed at 4,000 cells/5 ul/well in 1536-well black wall/clear bottom plates using a Multidrop dispenser. After the assay plates were incubated at a 37 C/5% CO2 incubator for 5 hours, 23 nL of compounds dissolved in DMSO, positive controls or DMSO only was transferred to the assay plate by a pin tool. The plates were incubated at 37 C for 16 hours. After 1 uL of LiveBLAzerTM B/G FRET substrate was added using a Flying Reagent Dispenser, the plates were incubated at room temperature for 2 hours, and fluorescence intensity was measured by an Envision plate reader.

Structure (SMILES)	Potency
CCC(=O)N(c1ccccc1)C1(COC)CCN(CCc2cccs2)CC1	inconclusive: 22.9 µM
Cc1ccc([N+](=O)[O-])c([N+](=O)[O-])c1	inconclusive: 46.7 µM
N#CSc1ccc([N+](=O)[O-])cc1[N+](=O)[O-]	inconclusive: 51.3 µM
